Test results published in paper PMC4634908.
Results are given in words; binding and its absence hold for the method and conditions named. Binding calls can cover weak binding; strength is not graded here.

Columns and labels:
Experiment in all cases: two-hybrid; MatchMaker system; TaCBL in pGBKT7 (BD), TaCIPK in pGADT7 (AD), co-transformed into yeast Y187; growth on TDO (SD/-Trp/-Leu/-His) with 10 mM 3-AT; + growth, - no growth
[1] = molecular target: TaCBL4 (Triticum aestivum cv. Chinese Spring) (UniProt V9LSA1)
[2] = molecular target: TaCBL9 (Triticum aestivum cv. Chinese Spring) (UniProt V9LSA5)
[3] = molecular target: TaCBL7 (Triticum aestivum cv. Chinese Spring) (UniProt V9LSE0)

binding [1]	binding [2]	binding [3]	Substance
no binding	no binding	–	TaCIPK22 (from UniProt A0A9R1F072)
binds	no binding	binds	TaCIPK26 (from UniProt A0A9R1MTK5)
binds	binds	binds	TaCIPK31 (from UniProt A0A9R1GM64)
no binding	no binding	no binding	TaCIPK32 (from UniProt W5ECV3)
